No constants are given. Whether binding was seen depends on the method and setting.
Experiments:
[1] = molecular target: MatA (Dictyostelium discoideum) (UniProt D3UFF3); experiment: SEC-MALS; Superdex 75 10/300 GL, 0.5 ml/min; 20 mM phosphate (pH 7), 50 mM NaCl, 2 mM EDTA; both purified
MatB = molecular target: T1, MatB (Dictyostelium discoideum, UniProt D3UFE5 1-107); experiment: as above
T1 sequence: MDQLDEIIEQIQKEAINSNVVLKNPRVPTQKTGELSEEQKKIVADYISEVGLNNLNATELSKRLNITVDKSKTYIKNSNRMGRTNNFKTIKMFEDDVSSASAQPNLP

B1: MatA (protein, UniProt D3UFF3 1-107)
chain: MDPLDKIINDIKKEANDSGVTLAPLSVPKPKLEELSEQQKIILAEYIAEVGLQNITAITLSKKLNITVEKAKNYIKNSNRLGRTNNLKTIGILQEEVSSMEAKSMTW
binding [1]: no binding

B2: MatB (protein, UniProt D3UFE5 1-107)
chain: T1 sequence
binding (MatB): no binding
